{"source": "the supplement of paper PMC8616043", "note": "Structures can show the parent of a compound that is named as a salt. This is one part of the list. Single values are uncertain here, since repeats match poorly.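 PR50, a 50-repeat proline–arginine dipeptide protein from C9ORF72 (ALS/FTD), was expressed by transfection in U-2 OS human cells stably carrying a GFP sensor with import and classical export signals. Per-well nuclear-minus-cytoplasm GFP, normalized between in-plate DMSO (low) and PR-only (high), was scored versus other test wells; compounds well below zero were hits reversing PR.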"}
{"tested_on": "U-2 OS NCT-C biosensor cells expressing PR50", "assay": "Z-score of normalised NCT-C biosensor translocation index in PR50-expressing cells; higher = more nuclear biosensor (more disrupted nuclear export)", "details": "3 µM; 24 h"}
{"smiles": "O=C(O)c1ccnc(C(=O)O)c1", "note": "[2,4-Pyridinedicarboxylic Acid]", "Z-score": "inactive: -0.484"}
{"smiles": "Cn1c(=O)c2c(ncn2CC2OCCO2)n(C)c1=O", "note": "[Doxofylline]", "Z-score": "inactive: -0.62"}
{"smiles": "CCCc1cc(C)[nH]c(=O)c1CNC(=O)c1cc(-c2ccnc(N3CCN(C)CC3)c2)cc2c1cnn2C(C)C", "Z-score": "inactive: -1.95"}
{"smiles": "O=C1c2c(O)cc(O)cc2O[C@H](c2ccc(O)c(O)c2)[C@H]1O", "note": "(racemic) [(±)-Taxifolin]", "Z-score": "inactive: -0.0984"}
{"smiles": "CN1CCN(CC(=O)N2c3ccccc3C(=O)Nc3cccnc32)CC1", "note": "[Pirenzepine dihydrochloride]", "Z-score": "inactive: -0.713"}
{"smiles": "COc1ccc2cc1Oc1ccc(cc1)C[C@@H]1c3cc(c(OC)cc3CCN1C)Oc1c(OC)c(OC)cc3c1[C@H](C2)N(C)CC3", "note": "[Isotetrandrine]", "Z-score": "inactive: -0.645"}
{"smiles": "CN(C)CCC(c1ccc(Br)cc1)c1ccccn1", "note": "(stereo not drawn) [(+)-  Brompheniramine maleate salt]", "Z-score": "inactive: 3.73"}
{"smiles": "CN(C)CCC(c1ccc(Br)cc1)c1ccccn1", "note": "(configuration not stated) [Brompheniramine Maleate]", "Z-score": "inactive: 0.0683"}
{"smiles": "COc1cc2ncnc(Nc3cccc(Br)c3)c2cc1OC", "Z-score": "inactive: 3.65"}
{"smiles": "COc1ccc2cc1Oc1ccc(cc1)C[C@H]1c3cc(c(OC)cc3CCN1C)Oc1c(OC)c(OC)c(OC)c3c1[C@H](C2)N(C)CC3", "note": "[Hernandezine]", "Z-score": "inactive: -0.31"}
{"smiles": "O=c1[nH]c2ccccc2n1CCN1CCN(c2cccc(C(F)(F)F)c2)CC1", "note": "[Flibanserin]", "Z-score": "inactive: 0.384"}
{"smiles": "COc1ccccc1N1CCN(CCCNc2c(C)c(=O)n(C)c(=O)n2C)CC1", "note": "[Urapidil, 5-Methyl-]", "Z-score": "inactive: -0.367"}
{"smiles": "COC(=O)C1=C(C)NC(C)=C(C(=O)OC(C)(C)CN(C)CCC(c2ccccc2)c2ccccc2)C1c1cccc([N+](=O)[O-])c1", "note": "(configuration not stated) [Lercanidipine hydrochloride hemihydrate]", "Z-score": "inactive: 0.0353"}
{"smiles": "C[C@]12CCC(=O)C=C1CC[C@@H]1[C@@H]2CC[C@@]2(C)[C@H]1CC[C@]2(O)C(=O)CO", "note": "[Cortexolone]", "Z-score": "inactive: 1.97"}
{"smiles": "O=C(Nc1cccnc1)c1cc(-c2ccnc(F)c2)ccc1OCc1ccccc1", "Z-score": "inactive: -0.107"}
{"smiles": "CCC1(c2ccccc2)C(=O)NCNC1=O", "note": "[Primidone]", "Z-score": "inactive: 0.348"}
{"smiles": "CCCCCCCCCC(=O)N[C@@H](Cc1c[nH]c2ccccc12)C(=O)N[C@H](CC(N)=O)C(=O)N[C@@H](CC(=O)O)C(=O)N[C@@H]1C(=O)NCC(=O)N[C@@H](CCCN)C(=O)N[C@@H](CC(=O)O)C(=O)N[C@H](C)C(=O)N[C@@H](CC(=O)O)C(=O)NCC(=O)N[C@H](CO)C(=O)N[C@@H]([C@H](C)CC(=O)O)C(=O)N[C@@H](CC(=O)c2ccccc2N)C(=O)O[C@@H]1C", "note": "[Daptomycin]", "Z-score": "inactive: -0.148"}
